Data taken from paper PMC8927860, “Completing the family of human Eps15 homology domains: Solution structure of the internal Eps15 homology domain of γ‐synergin” (Protein Science : A Publication of the Protein Society, 2022).
No constants are given. Whether binding was seen depends on the method and setting.

Target: T1, EH domain of human γ-synergin, longest construct (residues 279–388) (human) (UniProt Q9UMZ2)
T1 sequence: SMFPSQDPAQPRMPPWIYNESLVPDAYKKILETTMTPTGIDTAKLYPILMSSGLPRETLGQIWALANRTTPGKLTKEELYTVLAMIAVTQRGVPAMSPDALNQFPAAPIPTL
Test: ITC; EHγ 50–200 μM in the cell, SCAMP1 fragments and peptides A, B, C at 700–2000 μM titrated in; 20 mM Tris, 100 mM NaCl, 2 mM CaCl2 pH 7.5, 20°C; one site binding model; both purified

B1: SCAMP1′, coiled coil fragment of SCAMP1 devoid of NPF-repeats (residues 65–130) (domain or fragment, UniProt O15126 65-130)
chain: SMKPTEEHPAYTQIAKEHALAQAELLKRQEELERKAAELDRREREMQNLSQHGRKNNWPPLPSNFPVG
With B1 the binding was “no binding (tested: 700–2000 μM titrated into 50–200 μM EHγ)”.
